The list shows only some results of the screen, not a fair sample: it is rich in T/C values a quarter to a half above the control, in often repeated tests (any T/C) and in doses without a T/C. Further doses and runs are listed elsewhere. T/C: endpoint of the treated group in % of that of the vehicle group. Some entries give survivors of the animals treated and no T/C: the source files T/C as zero there, which appears to mark a toxic dose or a test without result, not a measured value. Some survivor counts are full or nearly so, which does not show that the dose was tolerated: survival well below the control is almost never listed, so the zero probably covers shortened survival too. Counts of survivors are from the toxicity check (mostly the fifth day) where no day follows; animals may have died later. Schedule codes are those of the source, taken here to give the interval after Q, in days (D) or hours (H), and the number of doses after X. Some doses were run more than once; their values stand side by side, smallest first. Some schedule codes hold Z or #, which are not explained here. For survival time, the PubChem record calls one and a half times the control and up active, and a quarter to a half above the control has no call in these data; cut-offs in other NCI protocols can differ. Some T/C values carry the count of animals alive at the toxicity check (mostly the fifth day); without a count, all were alive then.
System: L1210 leukemia ip in BDF1 mice, survival T/C
Assay: NCI In Vivo Anticancer Drug Screen. Data for tumor model L1210 Leukemia (intraperitoneal) in B6D2F1 (BDF1) mice
Conditions: higher T/C = longer survival
[1] = T/C endpoint: mean survival time, dose: 2.0 mg/kg/injection, schedule: Q01DX009 (ip), vehicle: water
[2] = T/C endpoint: mean survival time, dose: 4.0 mg/kg/injection, schedule: Q01DX009 (ip), vehicle: water
[3] = T/C endpoint: mean survival time, dose: 200.0 mg/kg/injection, schedule: Q04DX003 (ip), vehicle: saline
[4] = T/C endpoint: mean survival time, dose: 400.0 mg/kg/injection, schedule: Q04DX003 (ip), vehicle: saline

In the case of `COC(=O)C[C@](O)(CCC(C)(C)O)C(=O)O[C@@H]1C(OC)=C[C@]23CCCN2CCc2cc4c(cc2[C@H]13)OCO4`, the T/C (T/C endpoint: mean survival time, dose: 0.2 mg/kg/injection, schedule: Q01DX009 (ip), vehicle: saline) is reported as 125 % of control, the T/C (T/C endpoint: mean survival time, dose: 0.5 mg/kg/injection, schedule: Q01DX009 (ip), vehicle: saline, evaluated on day 30) is reported as 116 and 121 % of control and the T/C (T/C endpoint: mean survival time, dose: 0.5 mg/kg/injection, schedule: Q01DX009 (ip), vehicle: saline, evaluated on day 60) is reported as 117 % of control. The T/C (T/C endpoint: mean survival time, dose: 0.5 mg/kg/injection, schedule: Q01DX009 (ip), vehicle: saline, run until all animals had died) was 123 % of control, the T/C (T/C endpoint: mean survival time, dose: 0.5 mg/kg/injection, schedule: Q01DX009 (ip), vehicle: water) was 119, 124, 125, 131 % of control and the T/C (T/C endpoint: mean survival time, dose: 1.0 mg/kg/injection, schedule: Q01DX009 (ip), vehicle: saline, evaluated on day 30) was 120 and 124 % of control. For the same molecule, the T/C (T/C endpoint: mean survival time, dose: 1.0 mg/kg/injection, schedule: Q01DX009 (ip), vehicle: saline, evaluated on day 60) was 186 % of control, the T/C (T/C endpoint: mean survival time, dose: 1.0 mg/kg/injection, schedule: Q01DX009 (ip), vehicle: saline, run until all animals had died) was 132 % of control and the T/C (T/C endpoint: mean survival time, dose: 1.0 mg/kg/injection, schedule: Q01DX009 (ip), vehicle: water) was 117, 134, 135, 140 % of control. The survivor count (T/C endpoint: mean survival time, dose: 1.0 mg/kg/injection, schedule: Q03HX016 (ip), vehicle: saline) was 4 of 10, the T/C (T/C endpoint: mean survival time, dose: 1.0 mg/kg/injection, schedule: Q03HX024 (ip), vehicle: saline) was 130 % of control [8 of 10 alive] and the T/C (T/C endpoint: mean survival time, dose: 1.0 mg/kg/injection, schedule: Q#A X018 (ip), vehicle: saline) was 142 % of control. For the same molecule, the T/C (T/C endpoint: mean survival time, dose: 2.0 mg/kg/injection, schedule: Q01DX009 (ip), vehicle: saline, evaluated on day 30) was 130 and 138 % of control, the T/C (T/C endpoint: mean survival time, dose: 2.0 mg/kg/injection, schedule: Q01DX009 (ip), vehicle: saline, evaluated on day 60) was 136 % of control and the survivor count (T/C endpoint: mean survival time, dose: 2.0 mg/kg/injection, schedule: Q01DX009 (ip), vehicle: saline) was 3 of 6. For the same molecule, the T/C [1] was 109, 137, 148 % of control, the survivor count [1] was 5 of 10 and the T/C (T/C endpoint: mean survival time, dose: 2.0 mg/kg/injection, schedule: Q01DX009 (sc), vehicle: saline) was 126 % of control. For the same molecule, the survivor count (T/C endpoint: mean survival time, dose: 2.0 mg/kg/injection, schedule: Q03HX008 (ip), vehicle: saline) was 0 of 10, the survivor count (T/C endpoint: mean survival time, dose: 2.0 mg/kg/injection, schedule: Q03HX016 (ip), vehicle: saline) was 0 of 10 and the survivor count (T/C endpoint: mean survival time, dose: 2.0 mg/kg/injection, schedule: Q03HX024 (ip), vehicle: saline) was 0 of 10. The survivor count (T/C endpoint: mean survival time, dose: 2.5 mg/kg/injection, schedule: Q01DX009 (ip), vehicle: saline) was 4 of 6, the survivor count (T/C endpoint: mean survival time, dose: 4.0 mg/kg/injection, schedule: Q01DX009 (ip), vehicle: saline) was 2 of 10 and the T/C [2] was 132 % of control [9 of 10 alive]. For the same molecule, the survivor count [2] was 0 of 10 and 1 of 6, the survivor count (T/C endpoint: mean survival time, dose: 5.0 mg/kg/injection, schedule: Q01DX009 (ip), vehicle: saline) was 0 of 6 and the survivor count (T/C endpoint: mean survival time, dose: 8.0 mg/kg/injection, schedule: Q01DX009 (ip), vehicle: water) was 0 of 10. For the same molecule, the survivor count (T/C endpoint: mean survival time, dose: 8.0 mg/kg/injection, schedule: Q01DX009 (oral), vehicle: saline) was 0 of 10, the survivor count (T/C endpoint: mean survival time, dose: 8.0 mg/kg/injection, schedule: Q01DX009 (sc), vehicle: saline) was 2 of 10 and the survivor count (T/C endpoint: mean survival time, dose: 10.0 mg/kg/injection, schedule: Q01DX009 (ip), vehicle: saline) was 0 of 6. For the same molecule, the survivor count (T/C endpoint: mean survival time, dose: 16.0 mg/kg/injection, schedule: Q01DX001 (ip), vehicle: saline) was 2 of 10, the survivor count (T/C endpoint: mean survival time, dose: 16.0 mg/kg/injection, schedule: Q04DX003 (ip), vehicle: saline) was 2 of 10 and the survivor count (T/C endpoint: mean survival time, dose: 20.0 mg/kg/injection, schedule: Q01DX009 (ip), vehicle: saline) was 0 of 6. The T/C (T/C endpoint: median survival time, dose: 2.0 mg/kg/injection, schedule: Q01DX009 (ip), vehicle: saline, evaluated on day 5) was 141 % of control and the T/C (T/C endpoint: median survival time, dose: 2.0 mg/kg/injection, schedule: Q01DX009 (ip), vehicle: saline, evaluated on day 30) was 140 % of control.

For `NC(CS)=NCC12CC3CC(CC(C3)C1)C2`, the survivor count (T/C endpoint: mean survival time, dose: 50.0 mg/kg/injection, schedule: Q04DX003 (ip), vehicle: carboxymethylcellulose (CMC)) was 0 of 6, the survivor count (T/C endpoint: mean survival time, dose: 100.0 mg/kg/injection, schedule: Q01DX001 (ip), vehicle: Klucel (hydroxypropylcellulose) (HPC)) was 0 of 3 and the survivor count (T/C endpoint: mean survival time, dose: 100.0 mg/kg/injection, schedule: Q04DX003 (ip), vehicle: carboxymethylcellulose (CMC)) was 0 of 6. For the same molecule, the survivor count (T/C endpoint: mean survival time, dose: 200.0 mg/kg/injection, schedule: Q01DX001 (ip), vehicle: Klucel (hydroxypropylcellulose) (HPC)) was 0 of 3, the survivor count (T/C endpoint: mean survival time, dose: 200.0 mg/kg/injection, schedule: Q04DX003 (ip), vehicle: carboxymethylcellulose (CMC)) was 0 of 6 and the survivor count (T/C endpoint: mean survival time, dose: 400.0 mg/kg/injection, schedule: Q01DX001 (ip), vehicle: Klucel (hydroxypropylcellulose) (HPC)) was 0 of 3. The survivor count (T/C endpoint: mean survival time, dose: 400.0 mg/kg/injection, schedule: Q04DX003 (ip), vehicle: carboxymethylcellulose (CMC)) was 0 of 6.

In the case of `CCOC(=O)c1cc(Br)c(O)c(Br)c1`, the survivor count (T/C endpoint: mean survival time, dose: 200.0 mg/kg/injection, schedule: Q01DX009 (ip), vehicle: Klucel (hydroxypropylcellulose) (HPC)) is reported as 0 of 3.

`C/C(CC(=O)O)=C(\C)C(=O)O` was tested, and the survivor count (T/C endpoint: mean survival time, dose: 400.0 mg/kg/injection, schedule: Q01DX009 (ip), vehicle: water) was 1 of 6.

With `N=C(N)c1ccc(-c2nc3ccc(C(=N)N)cc3[nH]2)cc1` the survivor count (T/C endpoint: mean survival time, dose: 100.0 mg/kg/injection, schedule: Q04DX003 (ip), vehicle: saline) was 1 of 4, the survivor count [3] was 0 of 4 and the survivor count [4] was 0 of 4.

For `ClC1OCCOC1Cl` (stereo unspecified), the survivor count [3] was 2 of 5 and the survivor count [4] was 0 of 6.

`Nc1nc(N)c2nc(CNc3ccc(C(=O)NC(CC(=O)O)C(=O)O)cc3)cnc2n1` (stereo unspecified) was tested, and the T/C (T/C endpoint: mean survival time, dose: 6.25 mg/kg/injection, schedule: Q01DX009 (ip), vehicle: saline) was 127 % of control, the T/C (T/C endpoint: mean survival time, dose: 6.25 mg/kg/injection, schedule: Q01DX Z (ip), vehicle: saline) was 125 % of control and the T/C (T/C endpoint: mean survival time, dose: 12.5 mg/kg/injection, schedule: Q01DX009 (ip), vehicle: saline) was 130 % of control. For the same molecule, the T/C (T/C endpoint: mean survival time, dose: 12.5 mg/kg/injection, schedule: Q01DX Z (ip), vehicle: saline) was 137 and 144 % of control, the T/C (T/C endpoint: mean survival time, dose: 50.0 mg/kg/injection, schedule: Q01DX Z (ip), vehicle: saline) was 129 % of control and the survivor count (T/C endpoint: mean survival time, dose: 400.0 mg/kg/injection, schedule: Q01DX Z (ip), vehicle: saline) was 0 of 6.

With `NCCSSSSCCN` the survivor count (T/C endpoint: mean survival time, dose: 400.0 mg/kg/injection, schedule: Q01DX001 (ip), vehicle: saline) was 2 of 4.
